For test [1], the target named is T1, human CD81 on mouse 3T3 cells transfected with human CD81 (human) (UniProt P60033).
T1 sequence (looked up): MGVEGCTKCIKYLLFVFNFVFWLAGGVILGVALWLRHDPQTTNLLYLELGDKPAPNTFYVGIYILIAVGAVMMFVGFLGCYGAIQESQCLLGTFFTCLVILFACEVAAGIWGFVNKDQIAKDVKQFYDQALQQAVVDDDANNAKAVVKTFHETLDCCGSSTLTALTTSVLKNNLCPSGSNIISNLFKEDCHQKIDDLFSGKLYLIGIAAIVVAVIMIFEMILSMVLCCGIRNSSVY
The experiment in a line: summary of the cell binding studies (flow cytometry). (Flow cytometry measures light scatter and fluorescence of single cells or particles in a stream.)

Test [2] deals with T1, human CD81 on mouse 3T3 cells transfected with human CD81 (human). As to the kind of experiment: flow cytometry, recombinant E2 on 3T3 cells expressing human CD81, detected with antibody 108.

No constants are given. Whether binding was seen depends on the method and setting. Some entries that bind do so weakly or less than the wild type.

In the case of “Purified recombinant HCV envelope glycoprotein E2 (Ala 384-Lys 715) (from UniProt P26664 384-715)”, the binding result in test [1] and in test [2] was “binds” in each case.

For the origin of these results see patent US20040101829A1, “Protein that interacts with lipids and methods for treating hyperlipidemia” (The University of Iowa Research Foundation, priority 2002, published 2004).
